Assay results as given in patent publication US20030232420A1.
No constants are given. Whether binding was seen depends on the method and setting. Some entries that bind do so weakly or less than the wild type.

Protein sequences, listed by entry. Tags and fused reporters are not part of them. Lines headed by an entry give the natural chain unless they say otherwise; changes in a name come on top.
UniProt P12367: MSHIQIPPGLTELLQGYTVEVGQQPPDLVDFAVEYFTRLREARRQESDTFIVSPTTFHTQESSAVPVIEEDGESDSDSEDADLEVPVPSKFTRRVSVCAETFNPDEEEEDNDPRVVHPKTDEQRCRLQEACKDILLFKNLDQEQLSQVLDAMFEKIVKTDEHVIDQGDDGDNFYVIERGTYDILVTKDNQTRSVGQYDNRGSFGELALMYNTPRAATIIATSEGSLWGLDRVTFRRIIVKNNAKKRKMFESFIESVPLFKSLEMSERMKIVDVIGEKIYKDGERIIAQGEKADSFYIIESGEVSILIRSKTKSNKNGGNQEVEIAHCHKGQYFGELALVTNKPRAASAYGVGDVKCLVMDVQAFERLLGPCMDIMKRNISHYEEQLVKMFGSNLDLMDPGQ

Biological target: RIIα isoform of the PKA regulatory subunit (Mus musculus (Mouse)) (UniProt P12367)
Assay: fluorescence anisotropy

binding: binds
Binder: VQGNTDEAQEELAWKIAKMIVSDVMQQC (tetramethylrhodamine-5-maleimide on the C-terminal Cys; C-terminal amide) [AKB (dual), WT (SEQ ID NO:108) …, rhodamine-labeled]
